Article PMC6591252
Results are given in words; binding and its absence hold for the method and conditions named. In cells and extracts the contact can be indirect. Some results given as binding are weak or reduced against the parent protein; the word gives no strength.

The chains behind the UniProt entries cited, without tags or fusion partners.
UniProt P27986: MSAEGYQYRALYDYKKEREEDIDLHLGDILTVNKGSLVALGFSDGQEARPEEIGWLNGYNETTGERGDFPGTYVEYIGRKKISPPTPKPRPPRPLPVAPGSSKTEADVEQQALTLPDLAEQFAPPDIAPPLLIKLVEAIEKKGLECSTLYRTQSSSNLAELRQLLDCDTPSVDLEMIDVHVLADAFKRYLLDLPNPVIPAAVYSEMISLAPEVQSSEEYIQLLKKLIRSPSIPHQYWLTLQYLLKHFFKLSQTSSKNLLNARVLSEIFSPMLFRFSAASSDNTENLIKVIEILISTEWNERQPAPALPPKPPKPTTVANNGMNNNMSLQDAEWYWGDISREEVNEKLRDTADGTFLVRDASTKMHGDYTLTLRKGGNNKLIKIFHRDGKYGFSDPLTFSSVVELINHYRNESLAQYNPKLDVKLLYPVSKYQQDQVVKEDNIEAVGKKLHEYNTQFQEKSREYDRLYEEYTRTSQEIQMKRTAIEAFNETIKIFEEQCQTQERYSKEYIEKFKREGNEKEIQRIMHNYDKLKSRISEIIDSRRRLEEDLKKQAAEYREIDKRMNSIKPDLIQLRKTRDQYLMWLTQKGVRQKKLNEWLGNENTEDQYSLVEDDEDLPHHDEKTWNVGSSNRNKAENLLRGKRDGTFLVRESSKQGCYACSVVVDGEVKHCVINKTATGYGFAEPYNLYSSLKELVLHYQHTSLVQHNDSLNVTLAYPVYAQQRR
UniProt Q99755: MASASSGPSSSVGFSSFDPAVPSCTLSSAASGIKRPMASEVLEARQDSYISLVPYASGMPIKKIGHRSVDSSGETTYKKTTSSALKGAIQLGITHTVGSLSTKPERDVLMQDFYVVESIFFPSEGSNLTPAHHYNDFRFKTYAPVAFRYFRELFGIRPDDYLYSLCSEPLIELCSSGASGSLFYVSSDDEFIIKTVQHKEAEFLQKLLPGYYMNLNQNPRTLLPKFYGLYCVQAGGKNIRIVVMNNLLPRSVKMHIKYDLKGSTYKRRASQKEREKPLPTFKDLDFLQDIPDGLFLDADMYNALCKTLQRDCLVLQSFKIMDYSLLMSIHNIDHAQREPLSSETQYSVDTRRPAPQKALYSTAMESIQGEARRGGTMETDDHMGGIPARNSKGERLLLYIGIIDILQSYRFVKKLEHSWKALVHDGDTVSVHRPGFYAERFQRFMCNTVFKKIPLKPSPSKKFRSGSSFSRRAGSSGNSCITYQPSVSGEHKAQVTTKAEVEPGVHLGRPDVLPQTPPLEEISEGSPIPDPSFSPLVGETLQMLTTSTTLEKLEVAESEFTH

Assays:
[1] = molecular target: endogenous IQGAP1 (human (endogenous in MDA-MB-231 and UM-SCC47)) (UniProt P46940); test: proximity ligation; as a5, the sample treated with 30 μM IQ3 peptide for 3 h before 10 ng/ml EGF 15 min
[2] = molecular target: Myc-tagged wild-type IQGAP1 (IQ motif-containing GTPase-activating protein 1) (UniProt P46940); test: co-IP; Myc-tagged IQGAP1 WT or ΔIQ3 transfected in HEK293FT (Fig. 3a, Supplementary Fig. 6a) or UM-SCC47 (Fig. 4d) cells, starved 24 h, with or without 10 ng/ml EGF 15 min; lysis in 25 mM Tris-HCl pH 7.4, 150 mM NaCl, 1 mM EDTA, 1% NP-40, 5% glycerol; anti-c-Myc agarose 2 h at 4 °C; endogenous partners by blot
[3] = molecular target: endogenous IQGAP1 (human (endogenous in MDA-MB-231 and UM-SCC47)) (UniProt P46940); test: proximity ligation; endogenous IQGAP1 with EGFR, p85α or PIPKIα in UM-SCC47 cells starved 24 h, with or without 30 μM IQ3 peptide for 3 h, then 10 ng/ml EGF 15 min, fixed
[4] = molecular target: Myc-tagged wild-type IQGAP1 (IQ motif-containing GTPase-activating protein 1) (UniProt P46940); test: proximity ligation; UM-SCC47/HEK293FT cells transfected with Myc-tagged IQGAP1 WT or ΔIQ3, starved 24 h, with or without 10 ng/ml EGF 15 min, fixed in 4% PFA; Duolink in situ kit; Myc tag against the endogenous partner
[5] = molecular target: endogenous IQGAP1 (human (endogenous in MDA-MB-231 and UM-SCC47)) (UniProt P46940); test: co-IP; endogenous proteins, MDA-MB-231 whole cell lysates, starved 24 h, with or without 10 ng/ml EGF 15 min; anti-IQGAP1 antibody on Protein A/G agarose beads
[6] = molecular target: endogenous IQGAP1 (human (endogenous in MDA-MB-231 and UM-SCC47)) (UniProt P46940); test: proximity ligation; endogenous IQGAP1 and EGFR in MDA-MB-231 cells, starved 24 h, with or without 10 ng/ml EGF 15 min, fixed
[7] = molecular target: p85α regulatory subunit of PI3K (human (endogenous in HEK293FT and UM-SCC47)) (UniProt P27986); test: proximity ligation; synthetic IQ3 peptide (30 μM, 3 h) added to starved UM-SCC47 cells, then 10 ng/ml EGF 15 min; displacement read as loss of the PLA signal of endogenous IQGAP1 with PIPKIα or p85α; only the binder purified
[8] = molecular target: PIPKIα (PIP5K1A) (human (endogenous in HEK293FT and UM-SCC47)) (UniProt Q99755); test: as above
[9] = molecular target: Myc-tagged wild-type IQGAP1 (IQ motif-containing GTPase-activating protein 1) (UniProt P46940); test: co-IP; Myc-tagged IQGAP1 WT or ΔIQ3 transfected in HEK293FT (Fig. 3a, Supplementary Fig. 6a) or UM-SCC47 (Fig. 4d) cells, starved 24 h, with or without 10 ng/ml EGF 15 min; lysis in 25 mM Tris-HCl pH 7.4, 150 mM NaCl, 1 mM EDTA, 1% NP-40, 5% glycerol; anti-c-Myc agarose 2 h at 4 °C; endogenous partners by blot; remark: listed apart in the source

Molecule	binding [2]	binding [3]	binding [4]	other results
PIPKIα (PIP5K1A) (from UniProt Q99755 1-562) (enzyme)	binds	binds	binds	binding [1]: no binding (condition: with 30 μM IQ3 peptide)
RRRRRRRREQKLISEEDLEVVKIQSLARMHQARKRYRD (the eight N-terminal arginines are D-residues ((dR) x 8)) [membrane penetrating IQ3 peptide]	–	–	–	binding [7]: binds; binding [8]: binds
PDK1 (enzyme, UniProt O15530 1-556) MARTTSQLYDAVPIQSSVVLCSCPSPSMVRTQTESSTPPGIPGGSRQGPAMDGTAAEPRPGAGSLQHAQPPPQPRKKRPEDFKFGKILGEGSFSTVVLARELATSREYAIKILEKRHIIKENKVPYVTRERDVMSRLDHPFFVKLYFTFQDDEKLYFGLSYAKNGELLKYIRKIGSFDETCTRFYTAEIVSALEYLHGKGIIHRDLKPENILLNEDMHIQITDFGTAKVLSPESKQARANSFVGTAQYVSPELLTEKSACKSSDLWALGCIIYQLVAGLPPFRAGNEYLIFQKIIKLEYDFPEKFFPKARDLVEKLLVLDATKRLGCEEMEGYGPLKAHPFFESVTWENLHQQTPPKLTAYLPAMSEDDEDCYGNYDNLLSQFGCMQVSSSSSSHSLSASDTGLPQRSGSNIEQYIHDLDSNSFELDLQFSEDEKRLLLEKQAGGNPWHQFVENNLILKMGPVDKRKGLFARRRQLLLTEGPHLYYVDPVNKVLKGEIPWSQELRPEAKNFKTFFVHTPNRTYYLMDPSGNAHKWCRKIQEVWRQRYQSHPDAAVQ	–	–	–	binding [9]: binds

Now from value to molecule, other results behind:

binding [2]	binding [3]	binding [4]	Molecule	other results
binds	binds	binds	Epidermal growth factor receptor (EGFR) (from UniProt P00533 25-1210)	binding [5]: binds; binding [6]: binds
binds	binds	binds	p85α regulatory subunit of PI3K (from UniProt P27986 1-724)	–
